Chains of the proteins cited; added tags and fusions are not shown. Residues count along the entry.
UniProt O76036, 22-255: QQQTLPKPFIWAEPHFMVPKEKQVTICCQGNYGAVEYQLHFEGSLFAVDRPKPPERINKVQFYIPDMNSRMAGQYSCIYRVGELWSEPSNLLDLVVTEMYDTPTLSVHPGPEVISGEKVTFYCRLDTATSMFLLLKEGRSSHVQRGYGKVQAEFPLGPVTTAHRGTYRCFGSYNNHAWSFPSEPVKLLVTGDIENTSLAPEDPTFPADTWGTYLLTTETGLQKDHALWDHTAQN

In patent US20260071182A1 (GAIA BIOMEDICINE, published 2026):

Columns and labels:
[1] = biological target: T1, Biotinylated Human NKp46/NCR/CD335 Protein, Fc, Avitag (NC1-H82F9) (human, UniProt O76036 22-255, biotinylated (Avitag)); assay: BLI (Octet RED96), target on sensor, monobody in five 2-fold dilutions
T1 construct: Bought from ACROBiosystems, catalog NC1-H82F9; not shown: Fc and Avitag of the purchased protein
Protocol: (§1) The binding abilities and specificities were examined by using an Octet® RED96 (ForteBio) with bio-layer interferometry. Measurement was performed with the following program: Dip for 50 seconds, Load for x seconds (until a signal of 1.0 nm (NKp46, 2B4) or 0.8 nm (Nkp30) was reached), Baseline for 60 seconds, Association for 600 seconds, and Dissociation for 600 seconds. At that time, the monobody concentrations were equally set to 40 nM. The acquired data were analyzed with ForteBio Data Analysis 10.0. Only samples for which binding ability and specificity were found were subjected to measurement of dissociation constants under different conditions. The measurement conditions are shown in a table given below. Dip, Baseline, Association, and Dissociation were performed for the same times as in examining binding ability and specificity. The monobodies were serially diluted from the highest concentration by a factor of 2 to prepare five concentrations for use in measurement.
(§2) The binding abilities and specificities of all the clones expressed and purified in Example 3 were examined, and the values of dissociation constants were measured. FIGS. 5 to 7 show the measurement results. In the top graphs in each of FIGS. 5 to 7, upper lines show results of measurement of the binding abilities of the monobodies with binding of a target to the tip of the sensor, and lower lines show results of examination on whether a monobody was bound only to the sensor without binding of a target to the sensor. Mb in the graphs is an abbreviation for monobody concentration. For any of the clones, the monobody was bound to the sensor when a target was fixed on the sensor, and no binding was found when a target was not fixed on the sensor. The bottom graphs in each of FIGS. 5 to 7 show results of measurement of dissociation constants for five concentrations.

[2] = biological target: T2, Biotinylated Human 2B4/CD244/SLAMF4 Protein, Fc, Avitag (2B4-H82F0) (human, UniProt Q9BZW8-2 22-221, biotinylated (Avitag)); assay: as above
T2 construct: Bought from ACROBiosystems, catalog 2B4-H82F0; not shown: Fc and Avitag of the purchased protein
T2 sequence (looked up): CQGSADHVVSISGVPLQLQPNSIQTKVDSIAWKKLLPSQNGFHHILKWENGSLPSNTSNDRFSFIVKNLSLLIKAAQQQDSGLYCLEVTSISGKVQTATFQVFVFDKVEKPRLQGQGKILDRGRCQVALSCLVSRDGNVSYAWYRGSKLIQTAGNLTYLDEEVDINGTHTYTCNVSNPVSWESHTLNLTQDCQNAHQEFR
Protocol: as §1, §2

B1: Mb-NKp46-BC-1 (designed binder)
chain: LEVVEASPTSIQISWDAPIWGRYGTVRYYRITYGETGGNSPVQEFTVPGSKSTATISGLKPGVDYTITVYAVTTVRGQTYYWWMLPISINYRTEIDKPSQ
notes: Monobody on human fibronectin type III domain scaffold, BC-FG library; also called NKp46 BC-FG No. 1; not shown: N-terminal residues of the expression construct (X7n7; the library has MPNR), linker, Sortase A recognition site and His tag
With B1 as the binder, how does the Kd [1] read?
The Kd was 1.4 nM.

And the koff [1]?
Its koff is 0.0005 s⁻¹.

What about the kon [1] of the same binder?
Its kon is 350000 M⁻¹ s⁻¹.

B2: Mb-2B4-BC-1 (designed binder)
chain: LEVVEASPTSIQISWDAGPIVSYSWWYHWVRYYRITYGETGGNSPVQEFTVPGSKSTATISGLKPGVDYTITVYAVTVGYVNEKYDAWQSYVQPISINYRTEIDKPSQ
notes: Monobody on human fibronectin type III domain scaffold, BC-FG library; also called 2B4 BC-FG No. 1; not shown: Sortase A recognition site, His tag and any linker (X8n8) at the C terminus; MPNR in the library
With B2 as the binder, how does the Kd [2] read?
The Kd was 2 nM.

What about the koff [2] of the same binder?
Its koff is 0.00025 s⁻¹.

And the kon [2]?
Its kon is 120000 M⁻¹ s⁻¹.
